The values that follow come from patent US20060160201A1, “Three-dimensional structures of HDAC9 and Cabin1 and compound structures and methods related thereto” (priority 2003, published 2006).

These are yes or no findings as the source states them, for the method shown. Some binding calls cover weakened binding; strength is not graded here.

This test concerns the target T1, MEF2 (construct not stated) (human, UniProt Q02080 1-365, limits assumed).
T1 construct: The actual construct is unknown; also called MEF2B
T1 sequence: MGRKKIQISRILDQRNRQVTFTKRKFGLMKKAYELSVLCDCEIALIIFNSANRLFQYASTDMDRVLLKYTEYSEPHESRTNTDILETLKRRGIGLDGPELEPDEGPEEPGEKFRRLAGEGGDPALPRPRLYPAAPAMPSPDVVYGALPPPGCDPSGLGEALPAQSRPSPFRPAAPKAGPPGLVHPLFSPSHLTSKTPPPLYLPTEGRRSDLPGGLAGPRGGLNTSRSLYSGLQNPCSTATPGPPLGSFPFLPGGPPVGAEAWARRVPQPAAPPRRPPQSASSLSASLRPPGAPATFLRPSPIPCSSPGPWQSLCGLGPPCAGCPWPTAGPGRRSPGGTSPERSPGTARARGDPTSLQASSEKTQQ
Description: discussion of the examples; assay not named here.

As for RAVASTEVKQKLQEFLLSK (also called 19-mer peptide of HDAC9) [HDAC9 peptide RAVASTEVKQKLQEFLLSK (19 residues)], the binding result was “binds”.
